± gives the uncertainty stated by the source. The uncertainty is large for many entries.
Experiment: self-splicing fitness, log relative to wild type (ln ratio); higher = more splicing; Tetrahymena group I intron in knt gene, E. coli kanamycin selection, DiMSum; sequences stand for … in CUCUCU…GGAGGGAAAAGUUAUCAGGCAUGCACCUGGUAGCUAGUCUUUAAACCAAUAGAUUGCAUCGGUUUAAAAGGCAAGACCGUCAAAUUGCGGGAAAGGGGUCAACAGCCGUUCAGUACCAAGUCUCAGGGGAAACUUUGAGAUGGCCUUGCAAAGGGUAUGGUAAUAAGCUGACGGACAUGGUCCUAACCACGCAGCCAAGUCCUAAGUCAACAGAUCUUCUGUUGAUAUGGAUGCAGUUCACAGACUAAAUGUCGGUCGGGGAAGAUGUAUUCUUCUCAUAAGAUAUAGUCGGACCUCUCCUUAAUGGGAGCUAGCGGAUGAAGUGAUGCAACACUGGAGCCGCUGGGAACUAAUUUGUAUGCGAAAGUAUAUUGAUUAGUUUUGGAGUACUCGUGGUCG
Outline: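 A randomised library covering all eight P1ex-region intron nucleotides was built with the intron in the knt kanamycin-resistance gene on pET-22b(+) and held in E. coli BL21(DE3). Cells were grown overnight at 37°C or 30°C on LB agar, with or without 25 μg/mL kanamycin, plus 100 μg/mL carbenicillin, 50 μM IPTG and 0.2% rhamnose, and pooled colonies were amplicon-sequenced on an Illumina HiSeq 2500. DiMSum fitness is the error-weighted combination of wild-type-normalised replicate fold changes, kanamycin versus none.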

Sequence	self-splicing fitness (ln) (30 °C)	self-splicing fitness (ln) (37 °C)
GGCCAGCAAUAUUACGGGCC	-2.79 ± 0.53	-2.18 ± 1.1
CUCCAGCAAUAUUACGACCU		-3.23 ± 0.73
CCGCAGCAAUAUUACGUGGA	-3.51 ± 0.23	-2.43 ± 0.22
UUUAAGCAAUAUUACGAGCC		-2.56 ± 0.54
UAGUAGCAAUAUUACGUCAC	-4.36 ± 1	-2.28 ± 0.51
GACAAGCAAUAUUACGUACG	-1.82 ± 0.077	-0.508 ± 0.091
GUCUAGCAAUAUUACGGUAG	-4.71 ± 1	
CGUUAGCAAUAUUACGCCUA	-1.52 ± 1.2	
CCGUAGCAAUAUUACGUUCC		-2.03 ± 0.53
UAGGAGCAAUAUUACGCUAC	-1.96 ± 0.87	
UCUGAGCAAUAUUACGGGUA	-4.41 ± 0.73	
UUUUAGCAAUAUUACGUCUC	-2.97 ± 0.64	-2.01 ± 0.65
ACAGAGCAAUAUUACGCCUG	-2.47 ± 1.1	
AUCGAGCAAUAUUACGGAUG	-4.14 ± 0.59	
UUGGAGCAAUAUUACGUUCC	-2.62 ± 1.1	
UCUUAGCAAUAUUACGAAUC		-2.48 ± 0.54
CGGAAGCAAUAUUACGGCCG	-3.66 ± 0.53	-1.81 ± 0.51
UCCUAGCAAUAUUACGAGCC	-2.67 ± 0.61	-1.84 ± 0.56
CAUUAGCAAUAUUACGCAAA	-3.07 ± 0.53	
UAGGAGCAAUAUUACGCAGG		-2.92 ± 0.61
UUCCAGCAAUAUUACGGAGU		-3.39 ± 0.6
UCGCAGCAAUAUUACGCCGC	-3.27 ± 1.1	
AAUUAGCAAUAUUACGUCAA	-2.11 ± 0.17	-0.791 ± 0.22
UUCGAGCAAUAUUACGCCGG		-2.18 ± 0.64
GCAAAGCAAUAUUACGGGUU	-2.11 ± 0.12	-1.67 ± 0.16

Sequence	self-splicing fitness (ln) (30 °C)	self-splicing fitness (ln) (37 °C)
CGACAGCAAUAUUACGCAGC	-4.85 ± 0.72	
UUAUAGCAAUAUUACGCAUC	-2.25 ± 0.68	-2.21 ± 0.65
AUGGAGCAAUAUUACGAAGA	-2.89 ± 0.58	
UUGCAGCAAUAUUACGCUAC		-2.48 ± 0.63
CUCAAGCAAUAUUACGAAUA	-3.27 ± 0.64	-2.74 ± 0.54
UGCGAGCAAUAUUACGCCUU	-1.84 ± 0.68	
CCGUAGCAAUAUUACGAUCU	-3.23 ± 0.53	
CUUAAGCAAUAUUACGAGCU		-3.13 ± 0.74
CCAUAGCAAUAUUACGGUUA	-3.57 ± 0.29	-2.73 ± 0.21
CGUAAGCAAUAUUACGAAGA		-1.33 ± 0.59
GUAUAGCAAUAUUACGGGAA	-3.01 ± 0.56	
UCAAAGCAAUAUUACGAAAC		-2.46 ± 0.54
CGCUAGCAAUAUUACGAAGC		-2.16 ± 1.1
UUAGAGCAAUAUUACGAGGU	-3.19 ± 0.53	
ACCGAGCAAUAUUACGCCAG	-3.57 ± 0.53	
CUAGAGCAAUAUUACGGCGA		-2.32 ± 0.54
AAACAGCAAUAUUACGGUUG	-1.99 ± 0.061	-0.629 ± 0.075
CUUCAGCAAUAUUACGCCGA	-4.26 ± 0.72	
AGGGAGCAAUAUUACGCUGA	-2.81 ± 0.52	-2.94 ± 0.74
UGUUAGCAAUAUUACGCCGC		-3.19 ± 0.74
CGGUAGCAAUAUUACGUGGU	-3.17 ± 0.21	-2.3 ± 0.21
GGUGAGCAAUAUUACGAAGA		-2.76 ± 1.1
CCAGAGCAAUAUUACGAUCC	-3.77 ± 0.52	
AGAGAGCAAUAUUACGAUGC		-1.29 ± 0.51
GAAAAGCAAUAUUACGGCCG	-0.796 ± 0.087	-0.537 ± 0.12

Sequence	self-splicing fitness (ln) (30 °C)	self-splicing fitness (ln) (37 °C)
GAGGAGCAAUAUUACGCUGU	-2.65 ± 0.88	
UUUAAGCAAUAUUACGUCCC	-0.868 ± 1.4	
CAGCAGCAAUAUUACGCCGC	-2.65 ± 0.8	-1.66 ± 0.83
CACAAGCAAUAUUACGCCGG	-0.875 ± 0.081	-0.35 ± 0.095
UUGUAGCAAUAUUACGCGGU	-3.41 ± 0.74	-1.29 ± 0.71
GCGGAGCAAUAUUACGACCA	-3.8 ± 0.6	
UCGGAGCAAUAUUACGCUGU	-3.24 ± 0.8	-0.999 ± 0.52
GGCAAGCAAUAUUACGGCAG	-2.32 ± 0.14	-1.15 ± 0.15
UGCGAGCAAUAUUACGUAGA	-3.58 ± 0.62	
UUGUAGCAAUAUUACGGUCC		-0.83 ± 0.55
UCUAAGCAAUAUUACGGUCC	-3.29 ± 0.6	
UAUAAGCAAUAUUACGACGC	-3.44 ± 0.23	-1.19 ± 0.17
ACUCAGCAAUAUUACGGUUU	-0.62 ± 0.048	-0.291 ± 0.057
GCAGAGCAAUAUUACGCCCG	-3.19 ± 0.63	-1.9 ± 0.6
GUGGAGCAAUAUUACGAGUC	-4.76 ± 0.72	
CAAGAGCAAUAUUACGAUUC		-1.62 ± 0.58
GGUGAGCAAUAUUACGAGAA	-3.13 ± 1	
CUUUAGCAAUAUUACGUACA		-3.01 ± 0.53
GUAUAGCAAUAUUACGGAGA	-3.21 ± 1.1	
AGAGAGCAAUAUUACGUACA	-2.12 ± 0.6	0.504 ± 0.58
CUUUAGCAAUAUUACGUUAA		-2.86 ± 0.53
CGGCAGCAAUAUUACGCUUC	-2.87 ± 1.1	
AGGCAGCAAUAUUACGCUCU		-1.8 ± 0.6
CGGGAGCAAUAUUACGCCUG		-1.63 ± 0.5
AGUGAGCAAUAUUACGCAAC	-3.96 ± 0.76	-1.59 ± 0.62

Sequence	self-splicing fitness (ln) (30 °C)	self-splicing fitness (ln) (37 °C)
GUCGAGCAAUAUUACGACCC	-0.254 ± 0.58	0.0441 ± 0.72
AUCCAGCAAUAUUACGUCCG	-2.45 ± 0.17	-1.04 ± 0.15
AAAAAGCAAUAUUACGCUUU	-4.64 ± 0.27	-2.32 ± 0.19
GUUUAGCAAUAUUACGCACA	-0.867 ± 0.12	-0.0205 ± 0.14
CCGAAGCAAUAUUACGGAUA	-4.55 ± 0.59	
AGCGAGCAAUAUUACGAAUU	-3.39 ± 1	
GGGGAGCAAUAUUACGAUAG	-4.34 ± 0.72	-2.3 ± 1.1
UACAAGCAAUAUUACGAGCC		-1.46 ± 0.69
UUAGAGCAAUAUUACGAGCC		-0.785 ± 0.93
GCGGAGCAAUAUUACGUGGG	-2.01 ± 0.3	-2.25 ± 0.34
UCGUAGCAAUAUUACGAAGA		-1.51 ± 0.51
GGUGAGCAAUAUUACGCCUC		-0.835 ± 0.77
UCUCAGCAAUAUUACGGACC	-4.87 ± 1	
CAAUAGCAAUAUUACGUAAU	-3.35 ± 0.21	-1.92 ± 0.18
UUAGAGCAAUAUUACGCAUC	-3.26 ± 0.74	-1.52 ± 0.56
GAGGAGCAAUAUUACGGGAU		-2.54 ± 1.1
UGUGAGCAAUAUUACGUGAU		-3.73 ± 0.59
GCAGAGCAAUAUUACGAUAG	-3.82 ± 1	-2.81 ± 0.75
AGGGAGCAAUAUUACGCGAC		-2.79 ± 1.1
GCGAAGCAAUAUUACGCCAU	-4.25 ± 0.52	
GUCUAGCAAUAUUACGAUCA	-0.0149 ± 0.51	-1.66 ± 0.87
UGUCAGCAAUAUUACGGCUU	-0.428 ± 0.12	-0.319 ± 0.17
AUUGAGCAAUAUUACGUGUC	-4.77 ± 0.26	-2.53 ± 0.15
CGUGAGCAAUAUUACGACAC		-2.55 ± 0.76
GAUGAGCAAUAUUACGCCAU		-3.16 ± 0.6

33 successive entries out of the list so far:
Sequence	self-splicing fitness (ln) (30 °C)	self-splicing fitness (ln) (37 °C)
CGGUAGCAAUAUUACGUGGU	-3.17 ± 0.21	-2.3 ± 0.21
GGUGAGCAAUAUUACGAAGA		-2.76 ± 1.1
CCAGAGCAAUAUUACGAUCC	-3.77 ± 0.52	
AGAGAGCAAUAUUACGAUGC		-1.29 ± 0.51
GAAAAGCAAUAUUACGGCCG	-0.796 ± 0.087	-0.537 ± 0.12
GAGGAGCAAUAUUACGCUGU	-2.65 ± 0.88	
UUUAAGCAAUAUUACGUCCC	-0.868 ± 1.4	
CAGCAGCAAUAUUACGCCGC	-2.65 ± 0.8	-1.66 ± 0.83
CACAAGCAAUAUUACGCCGG	-0.875 ± 0.081	-0.35 ± 0.095
UUGUAGCAAUAUUACGCGGU	-3.41 ± 0.74	-1.29 ± 0.71
GCGGAGCAAUAUUACGACCA	-3.8 ± 0.6	
UCGGAGCAAUAUUACGCUGU	-3.24 ± 0.8	-0.999 ± 0.52
GGCAAGCAAUAUUACGGCAG	-2.32 ± 0.14	-1.15 ± 0.15
UGCGAGCAAUAUUACGUAGA	-3.58 ± 0.62	
UUGUAGCAAUAUUACGGUCC		-0.83 ± 0.55
UCUAAGCAAUAUUACGGUCC	-3.29 ± 0.6	
UAUAAGCAAUAUUACGACGC	-3.44 ± 0.23	-1.19 ± 0.17
ACUCAGCAAUAUUACGGUUU	-0.62 ± 0.048	-0.291 ± 0.057
GCAGAGCAAUAUUACGCCCG	-3.19 ± 0.63	-1.9 ± 0.6
GUGGAGCAAUAUUACGAGUC	-4.76 ± 0.72	
CAAGAGCAAUAUUACGAUUC		-1.62 ± 0.58
GGUGAGCAAUAUUACGAGAA	-3.13 ± 1	
CUUUAGCAAUAUUACGUACA		-3.01 ± 0.53
GUAUAGCAAUAUUACGGAGA	-3.21 ± 1.1	
AGAGAGCAAUAUUACGUACA	-2.12 ± 0.6	0.504 ± 0.58
CUUUAGCAAUAUUACGUUAA		-2.86 ± 0.53
CGGCAGCAAUAUUACGCUUC	-2.87 ± 1.1	
AGGCAGCAAUAUUACGCUCU		-1.8 ± 0.6
CGGGAGCAAUAUUACGCCUG		-1.63 ± 0.5
AGUGAGCAAUAUUACGCAAC	-3.96 ± 0.76	-1.59 ± 0.62
GUCGAGCAAUAUUACGACCC	-0.254 ± 0.58	0.0441 ± 0.72
AUCCAGCAAUAUUACGUCCG	-2.45 ± 0.17	-1.04 ± 0.15
AAAAAGCAAUAUUACGCUUU	-4.64 ± 0.27	-2.32 ± 0.19

(next part)

Sequence	self-splicing fitness (ln) (30 °C)	self-splicing fitness (ln) (37 °C)
UAUAAGCAAUAUUACGAGGC	-3.8 ± 0.77	
CUCCAGCAAUAUUACGCCCC		-1.42 ± 0.59
UUCAAGCAAUAUUACGUUCC	-3.06 ± 0.76	
GCUGAGCAAUAUUACGCCUG		-2.57 ± 1.1
UGAUAGCAAUAUUACGCCAC	-2.94 ± 0.64	
CCUCAGCAAUAUUACGAAGA	-3.71 ± 0.3	-2.31 ± 0.25
CAGUAGCAAUAUUACGCAUC	-4.17 ± 1.1	
GUCAAGCAAUAUUACGCCGG	-3.42 ± 0.76	
UUAAAGCAAUAUUACGAGAC	-2.11 ± 0.5	-1.39 ± 0.71
UCGGAGCAAUAUUACGGGGU		-3.21 ± 0.73
GGCUAGCAAUAUUACGGGCU	-4.72 ± 0.51	
CGGAAGCAAUAUUACGGAAC		-1.36 ± 0.9
GUGAAGCAAUAUUACGCCGG		-0.555 ± 0.7
CAUUAGCAAUAUUACGCGAC		-2.02 ± 0.57
GGUUAGCAAUAUUACGUAAC		-1.39 ± 1.2
UUCGAGCAAUAUUACGGGCG	-2.45 ± 0.2	-1.01 ± 0.18
UUAUAGCAAUAUUACGGGGG		-2.17 ± 0.64
UGUUAGCAAUAUUACGAAAU	-3.21 ± 0.55	
AGGCAGCAAUAUUACGCGCG	-0.446 ± 0.12	-0.358 ± 0.14
GUGAAGCAAUAUUACGGAAC	0.76 ± 0.34	-2.24 ± 0.57
UUGAAGCAAUAUUACGGUGA	-0.275 ± 0.08	-0.469 ± 0.09

From the supplement of paper PMC7877785
